Results as given in paper doi:10.1101/2023.08.11.552890.
No constants are given. Whether binding was seen depends on the method and setting. Binding seen in cells or lysates may run through a third protein. These calls come from enrichment with a bait or labelling near it, and not all partners need be listed.

Protein sequences, listed by entry. Tags and fused reporters are not part of them.
UniProt O35185: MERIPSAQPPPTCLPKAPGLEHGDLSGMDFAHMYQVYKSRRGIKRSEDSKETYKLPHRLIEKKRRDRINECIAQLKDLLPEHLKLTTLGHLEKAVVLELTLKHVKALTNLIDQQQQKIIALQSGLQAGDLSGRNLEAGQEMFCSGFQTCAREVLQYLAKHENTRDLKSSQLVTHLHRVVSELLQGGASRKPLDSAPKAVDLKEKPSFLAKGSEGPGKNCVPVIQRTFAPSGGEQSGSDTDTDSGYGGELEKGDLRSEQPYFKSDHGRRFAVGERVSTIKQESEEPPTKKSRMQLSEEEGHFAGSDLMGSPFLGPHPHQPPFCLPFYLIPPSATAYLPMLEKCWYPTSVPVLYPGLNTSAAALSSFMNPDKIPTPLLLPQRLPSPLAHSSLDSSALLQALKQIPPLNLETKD
UniProt Q8R3B7: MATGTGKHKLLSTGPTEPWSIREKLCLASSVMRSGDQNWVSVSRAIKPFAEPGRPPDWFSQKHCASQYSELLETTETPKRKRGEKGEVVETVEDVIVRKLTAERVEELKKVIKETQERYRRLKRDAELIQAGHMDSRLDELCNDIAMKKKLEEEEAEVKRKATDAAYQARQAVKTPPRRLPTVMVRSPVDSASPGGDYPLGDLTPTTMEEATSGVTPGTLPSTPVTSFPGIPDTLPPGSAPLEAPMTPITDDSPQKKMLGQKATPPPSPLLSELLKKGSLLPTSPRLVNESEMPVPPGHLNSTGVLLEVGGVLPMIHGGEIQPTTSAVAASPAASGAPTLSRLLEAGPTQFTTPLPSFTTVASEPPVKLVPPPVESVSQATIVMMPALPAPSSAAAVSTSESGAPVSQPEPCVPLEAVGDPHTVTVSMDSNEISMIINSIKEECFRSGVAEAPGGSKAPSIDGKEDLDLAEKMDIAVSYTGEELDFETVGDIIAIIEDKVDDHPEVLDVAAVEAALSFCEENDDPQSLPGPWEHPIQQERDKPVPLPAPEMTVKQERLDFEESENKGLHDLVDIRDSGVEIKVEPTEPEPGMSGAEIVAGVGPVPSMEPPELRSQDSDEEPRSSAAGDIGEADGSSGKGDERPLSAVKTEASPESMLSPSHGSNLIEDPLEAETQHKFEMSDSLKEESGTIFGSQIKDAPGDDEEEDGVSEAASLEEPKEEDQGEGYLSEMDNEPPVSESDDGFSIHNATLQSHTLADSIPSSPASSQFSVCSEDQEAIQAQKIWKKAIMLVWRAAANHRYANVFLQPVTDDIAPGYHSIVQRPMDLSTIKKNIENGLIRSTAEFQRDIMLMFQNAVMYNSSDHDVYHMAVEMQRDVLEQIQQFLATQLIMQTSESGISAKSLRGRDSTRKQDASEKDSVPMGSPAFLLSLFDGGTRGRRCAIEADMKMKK
UniProt Q60974: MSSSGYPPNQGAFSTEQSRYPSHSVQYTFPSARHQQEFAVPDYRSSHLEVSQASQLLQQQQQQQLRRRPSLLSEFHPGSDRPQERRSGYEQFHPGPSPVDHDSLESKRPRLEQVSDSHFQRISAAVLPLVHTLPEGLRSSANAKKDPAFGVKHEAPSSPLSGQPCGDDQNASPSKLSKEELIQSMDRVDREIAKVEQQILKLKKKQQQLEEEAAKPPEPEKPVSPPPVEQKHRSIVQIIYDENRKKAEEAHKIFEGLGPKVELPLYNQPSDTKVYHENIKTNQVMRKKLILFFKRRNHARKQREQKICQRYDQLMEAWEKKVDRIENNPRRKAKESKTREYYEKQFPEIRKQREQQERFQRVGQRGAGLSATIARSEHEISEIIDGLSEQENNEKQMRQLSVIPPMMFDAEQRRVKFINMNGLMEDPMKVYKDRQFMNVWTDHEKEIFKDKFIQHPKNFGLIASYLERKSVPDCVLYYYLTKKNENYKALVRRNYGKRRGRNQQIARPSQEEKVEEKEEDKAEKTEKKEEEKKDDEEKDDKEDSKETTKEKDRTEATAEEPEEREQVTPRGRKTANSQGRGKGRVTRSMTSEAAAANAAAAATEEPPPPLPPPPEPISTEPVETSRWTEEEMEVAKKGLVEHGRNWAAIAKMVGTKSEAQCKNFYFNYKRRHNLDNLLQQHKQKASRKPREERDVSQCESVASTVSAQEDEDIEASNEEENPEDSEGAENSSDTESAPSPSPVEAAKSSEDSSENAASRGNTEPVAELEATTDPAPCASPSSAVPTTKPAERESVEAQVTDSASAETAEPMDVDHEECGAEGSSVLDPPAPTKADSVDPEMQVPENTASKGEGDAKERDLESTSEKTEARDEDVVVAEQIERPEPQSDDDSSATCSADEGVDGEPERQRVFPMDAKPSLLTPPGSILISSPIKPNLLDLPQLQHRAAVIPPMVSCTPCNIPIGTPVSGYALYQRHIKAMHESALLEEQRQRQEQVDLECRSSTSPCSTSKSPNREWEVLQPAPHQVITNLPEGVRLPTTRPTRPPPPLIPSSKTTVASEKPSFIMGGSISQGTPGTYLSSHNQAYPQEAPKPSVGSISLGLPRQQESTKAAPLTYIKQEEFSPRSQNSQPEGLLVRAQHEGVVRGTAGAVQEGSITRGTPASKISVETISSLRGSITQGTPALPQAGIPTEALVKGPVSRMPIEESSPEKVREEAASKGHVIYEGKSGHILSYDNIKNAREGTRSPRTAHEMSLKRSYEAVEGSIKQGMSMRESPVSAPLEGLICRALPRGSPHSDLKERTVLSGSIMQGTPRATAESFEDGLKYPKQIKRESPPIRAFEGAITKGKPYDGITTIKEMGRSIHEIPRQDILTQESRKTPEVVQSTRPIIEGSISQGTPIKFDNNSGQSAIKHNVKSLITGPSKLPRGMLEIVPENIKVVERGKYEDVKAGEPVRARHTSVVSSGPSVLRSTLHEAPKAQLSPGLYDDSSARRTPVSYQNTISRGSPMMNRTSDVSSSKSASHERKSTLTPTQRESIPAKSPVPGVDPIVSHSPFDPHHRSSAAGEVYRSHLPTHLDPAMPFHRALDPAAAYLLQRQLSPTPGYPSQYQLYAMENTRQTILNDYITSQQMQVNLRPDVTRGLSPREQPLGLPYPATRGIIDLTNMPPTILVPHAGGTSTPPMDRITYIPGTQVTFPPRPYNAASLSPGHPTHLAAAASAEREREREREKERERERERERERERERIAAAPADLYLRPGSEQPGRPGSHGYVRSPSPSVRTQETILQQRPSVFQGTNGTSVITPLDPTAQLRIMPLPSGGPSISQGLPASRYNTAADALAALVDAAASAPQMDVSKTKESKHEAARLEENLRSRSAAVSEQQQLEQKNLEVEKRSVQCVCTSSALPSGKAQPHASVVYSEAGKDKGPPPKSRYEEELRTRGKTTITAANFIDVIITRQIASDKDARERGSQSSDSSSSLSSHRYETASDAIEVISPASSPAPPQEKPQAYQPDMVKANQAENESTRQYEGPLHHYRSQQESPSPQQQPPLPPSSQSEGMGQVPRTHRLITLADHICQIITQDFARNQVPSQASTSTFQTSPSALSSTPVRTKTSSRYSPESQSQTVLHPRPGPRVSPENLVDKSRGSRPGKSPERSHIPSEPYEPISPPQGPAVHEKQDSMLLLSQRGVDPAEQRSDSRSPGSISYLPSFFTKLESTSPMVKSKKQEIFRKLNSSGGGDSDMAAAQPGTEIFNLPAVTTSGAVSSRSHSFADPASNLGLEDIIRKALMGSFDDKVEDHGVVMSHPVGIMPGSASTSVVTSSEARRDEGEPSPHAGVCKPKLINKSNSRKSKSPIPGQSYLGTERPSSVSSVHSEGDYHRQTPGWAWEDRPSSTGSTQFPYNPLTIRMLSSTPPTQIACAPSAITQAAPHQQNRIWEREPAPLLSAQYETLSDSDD

Target: DEC1 (mouse (endogenous in MIN6)) (UniProt O35185)
Experiment: affinity purification with mass spectrometry

binding	Molecule
binds	BRD8 (from UniProt Q8R3B7 1-951)
binds	NCOR1 (from UniProt Q60974 1-2453)
binds	RAP80 (protein, UniProt Q5U5Q9 1-727) MPRRKKKIKEASESQNLEKKDLETSSCVSIKKKRRLEDLLIVISDSDGEETKEENGLQKTKTKQSNRSKCLAKRKVAHMSEEEQFALALKMSEQEAREVNNQEEKEEELLRKAIAESLNSCWSSAASATRSRPLAAELSSHSHQENTKDSGTTEGVWQLVPPSLCKGSHVSQGNEAEQRKEPWDHNENTEEEPVSGSSGSWDQSSQPVFENENVKCFDRCTGHLAEHTQCGKPQESTGSGYAFSKAVQGRGDTSRQCLPIPADTKGLQDTGGTVHYYWGIPFCPAGVDPNQYTNVILCQLEVYQKSLKMAQRQLVKKRGFGEPVLPRPPFLIQNECGQEDQTSDKNEGISEDMGDEAKEERQESRASVWHSETKDFQKSPIKSLKQKLLLEEEPTTSRGQSSQGLFVEETSEEGLKSSEGDNSVPTTQSIAALTSKRSLVLMPESSAEEITVCPETQLSFLEPLDLNREDSPDSRELPIEVRMAVGDKQVANREDCMKENPPPAVSSSTRVSCPLCNQDFPPTKIEQHAMYCNGLMEQETVLTRRRREAKNKSDGRTAAQPALDANRKEKCYLCKSLVPLGEYQCHVEACLQLAKVDREDGIEGTRRPRVCAPVEGKQQQRLKKSKDKGHSQGRLLSLLEQSEHRTTGVEKKPKYSEVRTFRMPSPEVEEASCSREMQSTLSQLNLNESPIKSFVPVSEATNCLVDFKEQFAFRSRTKSGRGRRRKS
